Data reported in patent US8299055B2, “8-substituted isoquinoline derivative and the use thereof” (Asahi Kasei Pharma Corporation, priority 2008, dated 2012).
Some results were stated once for a whole list of compounds, not compound by compound. For at least one compound, name, drawing or mass did not settle the structure.

Assays:
[1] = tested on: TNF-α production in THP-1 cells; assay: TNF-α production suppressing ability (in vitro)-1, LPS-stimulated THP-1 cells; type: cell-based, human; conditions: at 5 μM or lower, LPS 2 μg/mL, 4 hours
[2] = tested on: TNF-α production in mouse blood; assay: TNF-α production suppressing ability (in vitro)-2, LPS added to mouse blood; type: cell-based; conditions: at 10 μM or lower; BALB/c mouse blood, LPS 5 μg/mL, 4 hours

SMILES	TNF-α production suppression rate [1] [%]	TNF-α production suppression rate [2] [%]
CS(=O)(=O)N1CCC(Nc2cc(-c3cccc(C#N)c3)cc3ccncc23)C1 (racemic) [Example 3-N-401]	≥ 50	≥ 50
N#Cc1cccc(-c2cc(NCC3CNC3)c3cnccc3c2)c1 [Example 1-N-17]	≥ 50	≥ 50
Cn1cncc1C(=O)N1CC(Oc2cc(-c3ccc(F)c(C#N)c3)cc3ccncc23)C1 [Example 1-oP-33]	≥ 50	≥ 50
Cn1cncc1C(=O)N1CC(Oc2cc(-c3cccc(C(=O)O)c3)cc3ccncc23)C1 [Example 1-oP-43]	≥ 50	≥ 50
N#CCc1cccc(-c2cc(NC3CCN(C(=O)C4CC4)CC3)c3cnccc3c2)c1 [Example 2-NP-12]	≥ 50	≥ 50
N#CCc1ccc(-c2cc(NC3CCN(C(=O)C4CC4)CC3)c3cnccc3c2)cc1 [Example 2-NP-15]	≥ 50	≥ 50
Cc1ccc(C(=O)N2CCC(Nc3cc(-c4ccccc4)cc4ccncc34)CC2)cn1 [Example 2-NP-24]	≥ 50	≥ 50
Cc1cccc(-c2cc(NC3CCN(C(=O)c4ccc(C)nc4)CC3)c3cnccc3c2)c1 [Example 2-NP-25]	≥ 50	≥ 50
CS(=O)(=O)N1CCC(Nc2cc(-c3ccsc3)cc3ccncc23)CC1 [Example 2-NP-49]	≥ 50	≥ 50
Cc1noc(C)c1C(=O)N1CCC(COc2cc(-c3cccc(C#N)c3)cc3ccncc23)C1 (stereo not shown) [Example 2-o-134]	≥ 50	
N#Cc1cccc(-c2cc(OCC3CCN(C(=O)Cn4cncn4)C3)c3cnccc3c2)c1 (stereo not shown) [Example 2-o-137]	≥ 50	
CC(=O)N1CCC(COc2cc(-c3cccc(C#N)c3)cc3ccncc23)CC1 [Example 2-o-138]	≥ 50	
CN(C)CC(=O)N1CC(COc2cc(-c3cccc(C#N)c3)cc3ccncc23)C1 [Example 2-o-144]	≥ 50	≥ 50
CC(=O)Nc1cccc(C(=O)N2CCC(Oc3cc(-c4cccc(C#N)c4)cc4ccncc34)CC2)c1 [Example 2-o-162]	≥ 50	
N#Cc1cccc(-c2cc(OC3CCN(C(=O)CNC(=O)c4ccco4)CC3)c3cnccc3c2)c1 [Example 2-o-172]	≥ 50	
N#Cc1cccc(-c2cc(OC3CCN(C(=O)C4CCN(C(=O)c5cccnc5)CO4)CC3)c3cnccc3c2)c1 (stereo not shown) [Example 2-o-174]	≥ 50	≥ 50
N#Cc1cccc(-c2cc(OC3CN(C(=O)CNC(=O)C4CC4)C3)c3cnccc3c2)c1 [Example 2-o-197]	≥ 50	
N#Cc1cccc(-c2cc(OC3CN(C(=O)CNC(=O)c4cccnc4)C3)c3cnccc3c2)c1 [Example 2-o-199]	≥ 50	
Cn1nccc1C(=O)NCC(=O)N1CC(Oc2cc(-c3cccc(C#N)c3)cc3ccncc23)C1 [Example 2-o-200]	≥ 50	
N#Cc1cccc(-c2cc(OC3CN(C(=O)CNC(=O)c4ccco4)C3)c3cnccc3c2)c1 [Example 2-o-202]	≥ 50	
CN(C)CC(=O)N(C)CC(=O)N1CC(Oc2cc(-c3cccc(C#N)c3)cc3ccncc23)C1 [Example 2-o-205]	≥ 50	≥ 50
CN(CC(=O)N1CC(Oc2cc(-c3cccc(C#N)c3)cc3ccncc23)C1)C(=O)C1CC1 [Example 2-o-206]	≥ 50	
CN(CC(=O)N1CC(Oc2cc(-c3cccc(C#N)c3)cc3ccncc23)C1)C(=O)c1cccnc1 [Example 2-o-208]	≥ 50	
CN(CC(=O)N1CC(Oc2cc(-c3cccc(C#N)c3)cc3ccncc23)C1)C(=O)c1ccco1 [Example 2-o-209]	≥ 50	
N#Cc1cccc(-c2cc(OC3CN(C(=O)C4CN(C(=O)c5cccnc5)C4)C3)c3cnccc3c2)c1 [Example 2-o-214]	≥ 50	
Cn1cncc1C(=O)N1CCC(Oc2cc(-c3cccnc3)cc3ccncc23)CC1 [Example 2-o-222]	≥ 50	
N#Cc1cc(-c2cc(OC3CN(C(=O)c4ccnnc4)C3)c3cnccc3c2)ccc1F [Example 2-o-253]	≥ 50	
N#Cc1cc(-c2cc(OC3CN(C(=O)c4ccc(C(F)(F)F)nc4)C3)c3cnccc3c2)ccc1F [Example 2-o-256]	≥ 50	
N#Cc1cccc(-c2cc(SCCNC(=O)CO)c3cnccc3c2)c1 [Example 2-s-6]	≥ 50	
CS(=O)(=O)N1CCC(CNc2cc(-c3cccc(C#N)c3)cc3ccncc23)CC1 [Example 3-N-404]	≥ 50	≥ 50
